{"source": "paper doi:10.1101/2021.06.20.449167", "about": "(bioRxiv, 2021)", "binders": {"B1": {"name": "His6-Fy-5 (Gatd1) (natural protein, human, UniProt Q8NB37 1-220, looked up)", "chain": "MASERLPNRPACLLVASGAAEGVSAQSFLHCFTMASTAFNLQVATPGGKAMEFVDVTESNARWVQDFRLKAYASPAKLESIDGARYHALLIPSCPGALTDLASSGSLARILQHFHSESKPICAVGHGVAALCCATNEDRSWVFDSYSLTGPSVCELVRAPGFARLPLVVEDFVKDSGACFSASEPDAVHVVLDRHLVTGQNASSTVPAVQNLLFLCGSRK"}, "B2": {"name": "Fy-2 (Ppp1r21), in vitro translated (protein, UniProt Q6ZMI0 1-780)", "chain": "MASAELQGKYQKLAQEYSKLRAQNQVLKKGVVDEQANSAALKEQLKMKDQSLRKLQQEMDSLTFRNLQLAKRVELLQDELALSEPRGKKNKKSGESSSQLSQEQKSVFDEDLQKKIEENERLHIQFFEADEQHKHVEAELRSRLATLETEAAQHQAVVDGLTRKYMETIEKLQNDKAKLEVKSQTLEKEAKECRLRTEECQLQLKTLHEDLSGRLEESLSIINEKVPFNDTKYSQYNALNVPLHNRRHQLKMRDIAGQALAFVQDLVTALLNFHTYTEQRIQIFPVDSAIDTISPLNQKFSQYLHENASYVRPLEEGMLHLFESITEDTVTVLETTVKLKTFSEHLTSYICFLRKILPYQLKSLEEECESSLCTSALRARNLELSQDMKKMTAVFEKLQTYIALLALPSTEPDGLLRTNYSSVLTNVGAALHGFHDVMKDISKHYSQKAAIEHELPTATQKLITTNDCILSSVVALTNGAGKIASFFSNNLDYFIASLSYGPKAASGFISPLSAECMLQYKKKAAAYMKSLRKPLLESVPYEEALANRRILLSSTESREGLAQQVQQSLEKISKLEQEKEHWMLEAQLAKIKLEKENQRIADKLKNTGSAQLVGLAQENAAVSNTAGQDEATAKAVLEPIQSTSLIGTLTRTSDSEVPDVESREDLIKNHYMARIVELTSQLQLADSKSVHFYAECRALSKRLALAEKSKEALTEEMKLASQNISRLQDELTTTKRSYEDQLSMMSDHLCSMNETLSKQREEIDTLKMSSKGNSKKNKSR", "modifications": "[35S]-methionine-labelled"}, "B3": {"name": "Fy-3 (C12orf4), in vitro translated (protein, UniProt Q9NQ89 1-552)", "chain": "MKKNRERFCNREREFVYKFKVGSQCLELRVPLKFPVQENASHLHGRLMLLHSLPCFIEKDLKEALTQFIEEESLSDYDRDAEASLAAVKSGEVDLHQLASTWAKAYAETTLEHARPEEPSWDEDFADVYHDLIHSPASETLLNLEHNYFVSISELIGERDVELKKLRERQGIEMEKVMQELGKSLTDQDVNSLAAQHFESQQDLENKWSNELKQSTAIQKQEYQEWVIKLHQDLKNPNNSSLSEEIKVQPSQFRESVEAIGRIYEEQRKLEESFTIHLGAQLKTMHNLRLLRADMLDFCKHKRNHRSGVKLHRLQTALSLYSTSLCGLVLLVDNRINSYSGIKRDFATVCQECTDFHFPRIEEQLEVVQQVVLYARTQRRSKLKESLDSGNQNGGNDDKTKNAERNYLNVLPGEFYITRHSNLSEIHVAFHLCVDDHVKSGNITARDPAIMGLRNILKVCCTHDITTISIPLLLVHDMSEEMTIPWCLRRAELVFKCVKGFMMEMASWDGGISRTVQFLVPQSISEEMFYQLSNMLPQIFRVSSTLTLTSKH", "modifications": "[35S]-methionine-labelled"}, "B4": {"name": "Fy-4 (Cryzl1), in vitro translated (protein, UniProt O95825 1-349)", "chain": "MKGLYFQQSSTDEEITFVFQEKEDLPVTEDNFVKLQVKACALSQINTKLLAEMKMKKDLFPVGREIAGIVLDVGSKVSFFQPDDEVVGILPLDSEDPGLCEVVRVHEHYLVHKPEKVTWTEAAGSIRDGVRAYTALHYLSHLSPGKSVLIMDGASAFGTIAIQLAHHRGAKVISTACSLEDKQCLERFRPPIARVIDVSNGKVHVAESCLEETGGLGVDIVLDAGVRLYSKDDEPAVKLQLLPHKHDIITLLGVGGHWVTTEENLQLDPPDSHCLFLKGATLAFLNDEVWNLSNVQQGKYLCILKDVMEKLSTGVFRPQLDEPIPLYEAKVSMEAVQKNQGRKKQVVQF", "modifications": "[35S]-methionine-labelled"}, "B5": {"name": "Fy-5 (Gatd1), in vitro translated (protein, UniProt Q8NB37 1-220)", "chain": "B1 chain", "modifications": "[35S]-methionine-labelled"}, "B6": {"name": "Cryzl1 (Fy-4) from bovine brain cytosol (protein, UniProt Q59A28 1-349)", "chain": "MKGLYFQQSSTNEEITFVFQERENLPVTEDNYVKLQVKACALSQINTKLLAEMKMEKEFFPVGREVAGIVLDVGSKVSFFQPDDEVVGILPLDSEDPGLCEAVRVHEHYLVHKPEKVTWTEAAGTIRDGLRVYTALHYLSHLSPGKSVLIMDGASALGTIAIQLAHHRGAKVISTACSLEDKQFLERFRPPIARVIDVSNGKAHVAESCLEETGGLGVDIVLDAGVRLYSKDDEPAEKLQLLPHKHDIITLLGVGGHWVTTEENLQLDPPDSHCLFLKGAAVAFLNDEVWNLSNVQQGKYLCILKDVMEKLSTGVFRPQLDEPIPLYEAKVTMEVVQKNQGRKKQVVQF"}}, "note": "Results are given in words; binding and its absence hold for the method and conditions named. For part of these data: Binding can be weak; no strength is given. For part of these data: Where a sequence is shown, tags or fusion partners need not be part of it. For part of these data: Binding seen in cells or lysates may run through a third protein."}
{"molecular_target": "T1, GST-Fy-2 (Ppp1r21) (human) (UniProt Q6ZMI0)", "T1 sequence": "B2 chain", "assay": "pull-down"}
{"binder": "B1", "binding": "binds"}
{"molecular_target": "T2, His6-Fy-1 (Tbck), subunit of the reconstituted FERRY complex (human) (UniProt Q8TEA7)", "T2 sequence": "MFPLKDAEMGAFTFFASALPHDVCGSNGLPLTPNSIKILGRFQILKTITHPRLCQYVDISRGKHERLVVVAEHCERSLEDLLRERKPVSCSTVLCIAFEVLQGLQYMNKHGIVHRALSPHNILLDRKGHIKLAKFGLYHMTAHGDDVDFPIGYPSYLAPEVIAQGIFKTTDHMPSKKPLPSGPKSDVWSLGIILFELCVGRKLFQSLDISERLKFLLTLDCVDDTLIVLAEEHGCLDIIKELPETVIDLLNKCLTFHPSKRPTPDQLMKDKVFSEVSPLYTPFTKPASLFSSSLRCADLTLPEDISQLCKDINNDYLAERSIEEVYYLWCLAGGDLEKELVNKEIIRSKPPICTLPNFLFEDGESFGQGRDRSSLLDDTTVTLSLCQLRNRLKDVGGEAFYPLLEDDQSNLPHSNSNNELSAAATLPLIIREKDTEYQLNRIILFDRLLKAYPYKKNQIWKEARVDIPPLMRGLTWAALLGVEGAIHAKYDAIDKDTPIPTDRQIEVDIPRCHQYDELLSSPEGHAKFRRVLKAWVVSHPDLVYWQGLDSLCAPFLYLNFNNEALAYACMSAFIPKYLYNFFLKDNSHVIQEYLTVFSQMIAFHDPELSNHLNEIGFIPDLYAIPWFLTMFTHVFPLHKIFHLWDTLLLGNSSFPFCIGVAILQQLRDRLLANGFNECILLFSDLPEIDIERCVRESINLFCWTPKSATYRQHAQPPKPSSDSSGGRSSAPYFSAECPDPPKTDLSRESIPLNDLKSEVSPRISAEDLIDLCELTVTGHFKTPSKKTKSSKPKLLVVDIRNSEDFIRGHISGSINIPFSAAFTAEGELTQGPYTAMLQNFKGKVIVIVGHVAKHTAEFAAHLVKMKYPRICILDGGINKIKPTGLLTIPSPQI", "assay": "mass photometry"}
{"binder": "B1", "binding": "binds"}
{"molecular_target": "GST-Rab7", "assay": "pull-down"}
{"binder": "B2", "binding": "no binding"}
{"binder": "B3", "binding": "no binding"}
{"binder": "B4", "binding": "no binding"}
{"binder": "B5", "binding": "no binding"}
{"molecular_target": "GST-Rab11", "assay": "pull-down"}
{"binder": "B2", "binding": "no binding"}
{"binder": "B3", "binding": "no binding"}
{"binder": "B4", "binding": "no binding"}
{"binder": "B5", "binding": "no binding"}
{"molecular_target": "GST-Rab4", "assay": "pull-down"}
{"binder": "B2", "binding": "no binding"}
{"binder": "B3", "binding": "no binding"}
{"binder": "B4", "binding": "no binding"}
{"binder": "B5", "binding": "no binding"}
{"molecular_target": "GST-Rab7", "assay": "pull-down", "remark": "another data set of the same source"}
{"binder": "B2", "binding": "no binding"}
{"binder": "B3", "binding": "no binding"}
{"binder": "B4", "binding": "no binding"}
{"binder": "B5", "binding": "no binding"}
{"molecular_target": "GST-Rab11", "assay": "pull-down", "remark": "another data set of the same source"}
{"binder": "B2", "binding": "no binding"}
{"binder": "B3", "binding": "no binding"}
{"binder": "B4", "binding": "no binding"}
{"binder": "B5", "binding": "no binding"}
{"molecular_target": "GST-Rab4", "assay": "pull-down", "remark": "another data set of the same source"}
{"binder": "B2", "binding": "no binding"}
{"binder": "B3", "binding": "no binding"}
{"binder": "B4", "binding": "no binding"}
{"binder": "B5", "binding": "no binding"}
{"molecular_target": "Ppp1r21 (Fy-2) from bovine brain cytosol (bovine (endogenous in bovine brain cytosol))", "assay": "SEC + other: anion exchange chromatography"}
{"binder": "B6", "binding": "binds"}
